This note sets out measurements from PMC7442798.

Chains of the proteins cited; added tags and fusions are not shown.
UniProt Q14258: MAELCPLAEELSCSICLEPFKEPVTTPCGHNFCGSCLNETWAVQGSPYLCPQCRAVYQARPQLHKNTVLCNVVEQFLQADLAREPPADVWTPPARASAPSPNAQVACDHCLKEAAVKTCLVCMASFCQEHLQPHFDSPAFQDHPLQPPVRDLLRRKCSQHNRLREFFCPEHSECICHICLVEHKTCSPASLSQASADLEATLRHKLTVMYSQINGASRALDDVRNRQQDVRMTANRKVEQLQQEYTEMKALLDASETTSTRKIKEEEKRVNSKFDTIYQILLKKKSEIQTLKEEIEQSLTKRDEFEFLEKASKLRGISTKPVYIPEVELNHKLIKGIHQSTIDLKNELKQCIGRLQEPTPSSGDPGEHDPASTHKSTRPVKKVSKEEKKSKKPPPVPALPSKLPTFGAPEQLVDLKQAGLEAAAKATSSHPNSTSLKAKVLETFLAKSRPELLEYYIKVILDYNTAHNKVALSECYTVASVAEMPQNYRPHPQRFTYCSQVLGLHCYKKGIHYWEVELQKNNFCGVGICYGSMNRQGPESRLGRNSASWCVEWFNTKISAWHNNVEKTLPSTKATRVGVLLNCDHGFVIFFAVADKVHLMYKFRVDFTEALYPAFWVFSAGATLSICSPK

These are yes or no findings as the source states them, for the method shown. Binding seen in cells or lysates may run through a third protein. Some binding calls cover weakened binding; strength is not graded here. For some of these results: Where a sequence is shown, tags or fusion partners need not be part of it.

Experiment [1] deals with T1, endogenous OTUD5 (human (endogenous in Hep3B)) (UniProt Q96G74).
T1 sequence: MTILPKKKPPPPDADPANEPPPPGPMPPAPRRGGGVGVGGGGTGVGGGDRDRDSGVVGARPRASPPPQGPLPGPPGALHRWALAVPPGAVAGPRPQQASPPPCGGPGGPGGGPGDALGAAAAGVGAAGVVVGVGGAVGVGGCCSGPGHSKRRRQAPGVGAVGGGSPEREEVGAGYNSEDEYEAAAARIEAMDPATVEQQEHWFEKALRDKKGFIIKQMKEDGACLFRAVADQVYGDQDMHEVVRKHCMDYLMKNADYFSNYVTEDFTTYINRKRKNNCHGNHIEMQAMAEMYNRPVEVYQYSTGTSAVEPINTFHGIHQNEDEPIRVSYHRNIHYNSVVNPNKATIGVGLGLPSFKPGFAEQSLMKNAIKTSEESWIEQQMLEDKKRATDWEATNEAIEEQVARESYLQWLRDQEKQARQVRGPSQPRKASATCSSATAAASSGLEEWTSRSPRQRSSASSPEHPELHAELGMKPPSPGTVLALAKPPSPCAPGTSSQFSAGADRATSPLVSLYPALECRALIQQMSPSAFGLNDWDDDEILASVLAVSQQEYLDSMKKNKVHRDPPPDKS
The experiment can be described thus: co-IP; endogenous proteins; Hep3B cell lysates incubated with control IgG or specific antibody (anti-OTUD5 or anti-TRIM25) overnight at 4 °C, Protein A/G beads, western blotting. Background: A western blot detects proteins with antibodies after separation by electrophoresis.

The target of experiment [2] is T2, Flag-tagged wild-type OTUD5 (human) (UniProt Q96G74).
T2 sequence: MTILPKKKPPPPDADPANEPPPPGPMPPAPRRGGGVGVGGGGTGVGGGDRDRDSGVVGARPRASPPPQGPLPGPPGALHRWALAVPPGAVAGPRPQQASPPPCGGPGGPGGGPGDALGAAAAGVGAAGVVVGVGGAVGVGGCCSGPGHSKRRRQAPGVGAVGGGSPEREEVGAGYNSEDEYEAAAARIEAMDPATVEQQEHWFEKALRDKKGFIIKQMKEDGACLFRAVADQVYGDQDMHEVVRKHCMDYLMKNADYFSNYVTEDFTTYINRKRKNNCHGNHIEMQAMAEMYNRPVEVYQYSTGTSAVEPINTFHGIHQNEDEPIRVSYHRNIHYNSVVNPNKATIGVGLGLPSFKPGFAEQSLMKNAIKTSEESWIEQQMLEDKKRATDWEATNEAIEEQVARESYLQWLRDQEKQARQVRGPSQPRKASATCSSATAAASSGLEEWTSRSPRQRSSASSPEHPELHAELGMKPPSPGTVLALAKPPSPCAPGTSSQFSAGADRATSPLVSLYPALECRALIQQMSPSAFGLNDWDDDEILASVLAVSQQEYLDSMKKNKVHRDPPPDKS
The experiment can be described thus: co-IP; OTUD5 complex purified on anti-Flag M2 beads from the stable Flag-OTUD5/Hep3B cell line, analysed by western blotting.

The target of experiment [3] is T2, Flag-tagged wild-type OTUD5 (human). As to the kind of experiment: co-IP; Hep3B cells transfected with Flag-OTUD5-WT or Flag-OTUD5-ΔUIM; TRIM25 coprecipitated with the Flag-tagged protein.
Experiment [4] addresses TRIM25 E3 ubiquitin ligase (human (endogenous in Hep3B)) (UniProt Q14258). The experiment can be described thus: co-IP; endogenous proteins; Hep3B cell lysates incubated with control IgG or specific antibody (anti-OTUD5 or anti-TRIM25) overnight at 4 °C, Protein A/G beads, western blotting.

For “TRIM25 E3 ubiquitin ligase (from UniProt Q14258 1-630)”, the binding result in experiment [1], in experiment [2] and in experiment [3] was “binds” each time.

B1: endogenous OTUD5 (enzyme, UniProt Q96G74 1-571)
chain: MTILPKKKPPPPDADPANEPPPPGPMPPAPRRGGGVGVGGGGTGVGGGDRDRDSGVVGARPRASPPPQGPLPGPPGALHRWALAVPPGAVAGPRPQQASPPPCGGPGGPGGGPGDALGAAAAGVGAAGVVVGVGGAVGVGGCCSGPGHSKRRRQAPGVGAVGGGSPEREEVGAGYNSEDEYEAAAARIEAMDPATVEQQEHWFEKALRDKKGFIIKQMKEDGACLFRAVADQVYGDQDMHEVVRKHCMDYLMKNADYFSNYVTEDFTTYINRKRKNNCHGNHIEMQAMAEMYNRPVEVYQYSTGTSAVEPINTFHGIHQNEDEPIRVSYHRNIHYNSVVNPNKATIGVGLGLPSFKPGFAEQSLMKNAIKTSEESWIEQQMLEDKKRATDWEATNEAIEEQVARESYLQWLRDQEKQARQVRGPSQPRKASATCSSATAAASSGLEEWTSRSPRQRSSASSPEHPELHAELGMKPPSPGTVLALAKPPSPCAPGTSSQFSAGADRATSPLVSLYPALECRALIQQMSPSAFGLNDWDDDEILASVLAVSQQEYLDSMKKNKVHRDPPPDKS
As for B1, the binding entry in experiment [4] was “binds”.
